Out of some 300,000 compounds screened, about 5,400 (1.8%) were called active. Inconclusive results, whose numbers are uncertain, are shown with a selection of clear calls. Calls come from the whole dose curve; tested in HEK293 cells. A potency beside an inconclusive call is a rough fit, not a confirmed value.
assay: qHTS for inhibitors of binding or entry into cells for Marburg Virus; settings: Marburg virus pseudotyped entry inhibition, cell reporter; activity change, negative = inhibition: at 37.8 µM (top of the series) unless noted
% is set by controls: 0 for no effect and ±100 for the full control effect; potency is the fitted concentration of half-maximal effect.

| SMILES | Potency | activity change, negative = inhibition |
| --- | --- | --- |
| CCOc1ccccc1OCCCOc1ccc([N+](=O)[O-])cc1Cl | inactive |  |
| COCCCN1CC(=O)N2C(c3ccccc3)c3[nH]c4ccccc4c3C[C@H]2C1=O (stereo partly specified) | inconclusive: 35.5 µM [activator, single point] |  |
| COc1ccc(OCCCC(=O)N(CCC2=CCCCC2)c2c(N)n(Cc3ccccc3)c(=O)[nH]c2=O)cc1 | inconclusive: 3.16 µM [inhibitor, single point] |  |
| CCn1c(CNC(=O)C23CC4CC(CC(C4)C2)C3)nnc1SCC(=O)Nc1ccc(F)cc1 | inactive |  |
| CCc1ccc(C2C(C(C)=O)=C(C(=O)OC)Nc3nnnn32)cc1 (stereo unspecified) | inactive |  |
| CCOC(=O)c1cc(NC(=O)c2ccc(OC)cc2)c(=O)n2c1oc1ccc(Cl)cc12 | inactive |  |
| C/C(=N\Nc1nc(-c2cc(C)ccc2C)cs1)c1cc2ccccc2oc1=O | inconclusive: 0.316 µM [inhibitor, partial curve, poor fit] |  |
| CN1CCC(Oc2ccccc2Sc2ccccc2)CC1 | active: 10.3 µM |  |
| c1ccc2c(c1)ncn2-c1ncnc2sc3c(c12)CCCC3 | inactive |  |
| COc1ccccc1CN1CC(C(=O)NCc2cc(C)on2)CCC1=O (stereo unspecified) | inconclusive: 0.708 µM [activator, single point] |  |
| NNC(=O)CN1C(CN2CCOCC2)=Nc2ccc(Br)cc2C1c1ccccc1 (stereo unspecified) | inconclusive: 35.5 µM [inhibitor, single point] |  |
| Cc1cccn2cc(-c3cc4ccccc4oc3=O)nc12 | inactive |  |
| O=C(COc1ccccc1)N(Cc1ccccc1)c1nc(-c2ccccc2)cs1 | inconclusive: 7.3 µM [inhibitor, partial curve, poor fit] |  |
| COc1ccccc1N(CC(=O)NCc1ccc2c(c1)OCO2)C(=O)CCC(=O)Nc1nccs1 | inconclusive: 5.62 µM [activator, single point] |  |
| COc1ccc(CCNC(=S)Nc2ccc(OC)cc2)cc1 | inactive |  |
| O=C(c1ccc(F)cc1)N1CCC(C(=O)N2CCN(Cc3ccc4c(c3)OCO4)CC2)CC1 | inactive |  |
| CN(C)/C=C(/C(=O)c1ccc(Cl)cc1)S(C)(=O)=O | inconclusive: 35.5 µM [activator, single point] |  |
| COC(=O)CC=C[C@@H](C)[C@@H](C=NOCC[C@@H]1C=C[C@H](OC(C)=O)[C@@H](COC(C)=O)O1)NS(=O)(=O)c1ccc(C)cc1 | inconclusive: 0.266 µM [activator, full curve, poor fit] |  |
| CC1=NS(=O)(=O)NC(C)(C)C1 | inactive |  |
| CCOC(=O)CCCN1CC(O)=C(c2nc3ccccc3s2)C1=N | inconclusive: 6.31 µM [activator, single point] |  |
| CC(C)c1ccc(N=C2N=C(N)c3ccccc32)cc1 | inconclusive: 16.4 µM [inhibitor, partial curve, poor fit] |  |
| O=C(NCc1cccnc1)c1ccc(Cn2cc(C(F)(F)F)ccc2=O)cc1 | inactive |  |

| SMILES | Potency | activity change, negative = inhibition |
| --- | --- | --- |
| COc1cc(-c2nnn(CC(=O)NCc3ccccc3)n2)cc(OC)c1OC | inconclusive: 22.4 µM [inhibitor, single point] |  |
| CCn1c(=S)sc2c(=O)n(-c3ccccc3)c(SCC(=O)NCc3ccco3)nc21 | inconclusive: 9.2 µM [inhibitor, partial curve] |  |
| Cc1cc(N(C)Cc2ccccc2)nc(-c2ccccc2)n1 | inconclusive: 29.1 µM [inhibitor, single point] |  |
| CNc1ccc(/C=C/C(=O)c2ccc(C)cc2)cc1[N+](=O)[O-] |  | inconclusive: 7.54% [activator] |
| O=C(N/N=C/c1cccc(OCc2ccccc2)c1)c1ccc(Br)cc1 | inactive |  |
| Cc1ccc(-c2cc(C)nc3nc(N)nn23)cc1 | inconclusive: 16.4 µM [activator, single point] |  |
| Cc1cc(C)nc(NS(=O)(=O)c2ccc(NC(=O)COc3ccccc3F)cc2)n1 | inconclusive: 11.2 µM [activator, single point] |  |
| CN(C)c1ccc(/C=N/N=C/c2ccccc2O)cc1 | active: 5.62 µM |  |
| COC(=O)c1ccc2c(=O)n(CCN3CCOCC3)c(SCC(=O)Nc3cccc(OC)c3)nc2c1 | inconclusive: 35.5 µM [inhibitor, single point] |  |
| COc1cccc(C(=O)Nc2nnc(SCC(=O)Nc3ccc(NC(C)=O)cc3)s2)c1 | inconclusive: 35.5 µM [inhibitor, single point] |  |
| CC(C)c1nc(SCC(=O)N2c3ccccc3CC2C)c2ccccc2n1 (stereo unspecified) | inconclusive: 14.6 µM [inhibitor, partial curve, poor fit] |  |
| CCC(=O)N1CCc2cc(S(=O)(=O)NCCC(=O)Nc3ccc(OC)c(OC)c3)ccc21 | inactive |  |
| Cc1cccc(CSc2nc3c(c(-c4cccs4)c2C#N)CN(C)CC3)c1 | inconclusive: 17.8 µM [inhibitor, single point] |  |
| COc1ccc2[nH]c(=O)c(CN(CC3CCCO3)S(=O)(=O)c3ccccc3)cc2c1 (stereo unspecified) | inconclusive: 17.8 µM [inhibitor, single point] |  |
| O=C(Nc1cccc(N=Cc2cc(Cl)cc(Br)c2O)c1)c1ccco1 | inconclusive: 22.4 µM [inhibitor, single point] |  |
| Cc1ccc(N(C(=O)Cn2nnc3ccccc32)C(C(=O)NCc2ccccc2)c2ccccn2)cc1 (stereo unspecified) | inconclusive: 35.5 µM [inhibitor, single point] |  |
| Cc1ccc(NC(=O)c2ccco2)nc1 | inconclusive: 35.5 µM [inhibitor, single point] |  |
| COc1ccc(NS(=O)(=O)c2cc(NC(=O)/C=C/c3cccs3)ccc2N2CCOCC2)cc1 | inconclusive: 11.2 µM [inhibitor, single point] |  |
| CCOc1ccccc1CNCCc1ccc2c(c1)OCO2 | inconclusive: 35.5 µM [inhibitor, single point] |  |
| O=C(NC(=S)NNC(=O)c1ccccc1O)c1ccc(F)cc1 | inconclusive: 7.08 µM [inhibitor, partial curve, poor fit] |  |
| COc1ccc(CCN(C)C(=S)Nc2cccc(C)c2)cc1OC | inconclusive: 3.16 µM [inhibitor, partial curve, poor fit] |  |
| COc1cccc(OC)c1C(=O)NC(=S)NCc1ccccc1 |  | inconclusive: 12.7% [activator] [at 46.1 µM] |

Retrieved by compound from the entries so far, four records:

| SMILES | Potency | activity change, negative = inhibition |
| --- | --- | --- |
| COC(=O)c1ccc2c(=O)n(CCN3CCOCC3)c(SCC(=O)Nc3cccc(OC)c3)nc2c1 | inconclusive: 35.5 µM [inhibitor, single point] |  |
| O=C(NCc1cccnc1)c1ccc(Cn2cc(C(F)(F)F)ccc2=O)cc1 | inactive |  |
| COc1ccc(CCNC(=S)Nc2ccc(OC)cc2)cc1 | inactive |  |
| CCOC(=O)CCCN1CC(O)=C(c2nc3ccccc3s2)C1=N | inconclusive: 6.31 µM [activator, single point] |  |

Following part:

| SMILES | Potency | activity change, negative = inhibition |
| --- | --- | --- |
| COc1ccc(NC(=O)CSc2n[nH]c(C(C)C)n2)c([N+](=O)[O-])c1 | inconclusive: 2.82 µM [inhibitor, single point] |  |
| COc1ccc(N2C(=O)C(CC(=O)O)S/C2=N\N=C\c2cccs2)cc1 (stereo unspecified) | inconclusive: 25.1 µM [inhibitor, partial curve, poor fit] |  |
| Cn1/c(=N/NC(=O)c2ccccc2F)sc2ccccc21 | inconclusive: 1.78 µM [activator, full curve, poor fit] |  |
| CC(C)(C)c1ccc(C(=O)CC(Sc2ccc(Cl)cc2)C(=O)O)cc1 (stereo unspecified) | inconclusive: 35.5 µM [inhibitor, single point] |  |
| O=C(CN1C(=O)C2C3c4ccccc4C(c4ccccc43)C2C1=O)Nc1ccccc1C(=O)O (stereo unspecified) | inconclusive: 0.0891 µM [activator, partial curve, poor fit] |  |
| Cc1ccc(C)c(N2CCN(C(c3ccc(F)cc3)c3nnc(-c4ccccc4)o3)CC2)c1 (stereo unspecified) | inconclusive: 22.4 µM [inhibitor, single point] |  |
| Cc1sc2c(c1C)C(=O)NC(c1ccccc1F)N2 (stereo unspecified) | inconclusive: 14.1 µM [activator, partial curve, poor fit] |  |
| CCN(c1ccccc1)S(=O)(=O)c1ccc(C(=O)N(C)CCc2ccc(OC)c(OC)c2)cc1 | inactive |  |
| Cc1cc(NC(=O)c2cc3ccccc3o2)cc(C)c1OCC(=O)N1CCOCC1 | inconclusive: 10.3 µM [inhibitor, partial curve, poor fit] |  |
| O=C(Cc1ccc(Br)cc1)NNC(=O)c1cccs1 | inconclusive: 5.62 µM [inhibitor, partial curve, poor fit] |  |
| Cc1oc(-c2ccccc2F)nc1CN1CCC(C(=O)NC2CCCc3ccccc32)CC1 (stereo unspecified) | inconclusive: 9.2 µM [inhibitor, partial curve] |  |
| CC1(C)c2ccccc2N2CC(=O)N(CC(N)=O)C21C (stereo unspecified) | inactive |  |
| Cc1ccc(S(=O)(=O)c2c(C)cc(-c3ccccc3)[nH]c2=O)cc1 | inconclusive: 32.6 µM [inhibitor, single point] |  |
| Clc1ccc(-c2nc3ccccn3c2Nc2ccc3c(c2)OCCO3)s1 | inconclusive: 1 µM [activator, full curve, poor fit] |  |
| CC(=O)c1ccc(NC(=O)/C=C/c2ccc(C)cc2)cc1 | inactive |  |
| CC(=O)Nc1cccc(/C(C)=N/Nc2nc3ccccc3s2)c1 | inconclusive: 35.5 µM [inhibitor, single point] |  |
| COc1ccc(-n2c(O)c(C=NCCCn3ccnc3)c(=O)[nH]c2=O)cc1 | inconclusive: 0.631 µM [activator, full curve, poor fit] |  |
| Cc1cccc(NC(=O)N2CCN(Cc3ccccc3)CC2)c1 | inactive |  |
| Cc1ccc(N(CC(=O)N2CCN(c3cc(Cl)ccc3C)CC2)S(=O)(=O)c2c(C)noc2C)cc1 | inconclusive: 10 µM [inhibitor, partial curve, poor fit] |  |
| CCN(CC)CCOc1ccc2c(c1)C(=NNC(=O)c1ccccn1)c1cc(OCCN(CC)CC)ccc1-2 | active: 10.3 µM |  |
| COc1cc(SC)ccc1C(=O)NC1CCCc2ccccc21 (stereo unspecified) | inconclusive: 18.3 µM [inhibitor, single point] |  |
| O=C1/C(=C/c2ccccc2)CCC1C1CCCC1 (stereo unspecified) | inconclusive: 4.47 µM [activator, single point] |  |

Reference: PubChem BioAssay AID540276 (National Center for Advancing Translational Sciences (NCATS), 2011)
